Assay results as given in patent publication US10335608B2, “Photodynamic compounds and methods for activating them using ionizing radiation and/or other electromagnetic radiation for therapy and/or diagnostics” (THERALASE TECHNOLOGIES, INC., priority 2016, dated 2019).

Assay: Singlet oxygen generation (SOG fluorescence) under red light after X-ray exposure
Format: physicochemical
Details: 500 μM; red light (625 nm) irradiation without or with prior X-ray (5 or 20 Gy)

## Ru(4,4′-dimethyl-2,2′-bipyridine)2Cl2 [TLD1433]
  Singlet oxygen generation (SOG fluorescence): accelerated singlet oxygen generation
